Laboratory results reported in the supplement of paper PMC10849652.
The other results are listed elsewhere or left out.

The chains behind the UniProt entries cited, without tags or fusion partners. Where a name states a change or a piece, a line headed by the entry shows the natural chain unless it says otherwise.
UniProt P53671: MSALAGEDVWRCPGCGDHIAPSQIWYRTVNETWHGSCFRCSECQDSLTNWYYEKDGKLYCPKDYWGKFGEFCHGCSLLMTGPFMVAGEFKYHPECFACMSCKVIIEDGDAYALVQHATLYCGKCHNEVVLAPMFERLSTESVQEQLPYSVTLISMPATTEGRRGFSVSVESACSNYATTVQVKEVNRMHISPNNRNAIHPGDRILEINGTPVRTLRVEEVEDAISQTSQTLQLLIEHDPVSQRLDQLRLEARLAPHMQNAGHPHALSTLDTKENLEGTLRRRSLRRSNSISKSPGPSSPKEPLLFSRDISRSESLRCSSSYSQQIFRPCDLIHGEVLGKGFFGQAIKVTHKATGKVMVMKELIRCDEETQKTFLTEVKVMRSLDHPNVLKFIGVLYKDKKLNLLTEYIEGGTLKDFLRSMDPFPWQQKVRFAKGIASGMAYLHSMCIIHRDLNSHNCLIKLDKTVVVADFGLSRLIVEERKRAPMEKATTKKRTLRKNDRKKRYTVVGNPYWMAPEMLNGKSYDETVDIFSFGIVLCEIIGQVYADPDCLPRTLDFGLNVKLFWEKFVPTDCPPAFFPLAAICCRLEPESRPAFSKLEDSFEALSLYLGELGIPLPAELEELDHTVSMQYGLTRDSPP
UniProt O15243: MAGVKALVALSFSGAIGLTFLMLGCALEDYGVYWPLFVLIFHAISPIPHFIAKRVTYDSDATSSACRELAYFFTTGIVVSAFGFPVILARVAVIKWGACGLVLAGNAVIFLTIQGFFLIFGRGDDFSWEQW
UniProt Q14693: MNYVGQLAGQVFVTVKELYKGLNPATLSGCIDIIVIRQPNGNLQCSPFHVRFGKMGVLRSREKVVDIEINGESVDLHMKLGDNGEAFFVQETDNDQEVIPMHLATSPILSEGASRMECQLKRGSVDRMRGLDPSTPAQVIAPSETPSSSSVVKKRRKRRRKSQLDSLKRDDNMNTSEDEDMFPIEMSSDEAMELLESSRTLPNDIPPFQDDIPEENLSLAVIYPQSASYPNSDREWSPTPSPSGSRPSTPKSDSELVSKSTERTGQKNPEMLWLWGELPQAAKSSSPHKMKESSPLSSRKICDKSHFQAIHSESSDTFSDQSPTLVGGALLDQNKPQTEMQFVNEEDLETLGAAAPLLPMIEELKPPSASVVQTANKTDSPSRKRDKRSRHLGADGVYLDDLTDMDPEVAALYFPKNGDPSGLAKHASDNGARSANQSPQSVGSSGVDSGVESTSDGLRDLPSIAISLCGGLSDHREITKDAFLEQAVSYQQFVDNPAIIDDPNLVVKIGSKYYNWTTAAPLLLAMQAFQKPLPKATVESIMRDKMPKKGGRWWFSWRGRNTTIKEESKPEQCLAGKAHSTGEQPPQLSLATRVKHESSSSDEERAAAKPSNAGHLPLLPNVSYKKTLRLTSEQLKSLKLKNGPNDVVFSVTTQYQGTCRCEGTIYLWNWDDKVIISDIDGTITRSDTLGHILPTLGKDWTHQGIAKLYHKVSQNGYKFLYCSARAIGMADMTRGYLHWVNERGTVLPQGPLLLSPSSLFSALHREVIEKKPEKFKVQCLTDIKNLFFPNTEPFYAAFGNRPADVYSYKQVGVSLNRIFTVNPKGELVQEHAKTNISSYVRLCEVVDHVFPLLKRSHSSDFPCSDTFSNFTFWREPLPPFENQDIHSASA
UniProt P48059, whole entry, looked up: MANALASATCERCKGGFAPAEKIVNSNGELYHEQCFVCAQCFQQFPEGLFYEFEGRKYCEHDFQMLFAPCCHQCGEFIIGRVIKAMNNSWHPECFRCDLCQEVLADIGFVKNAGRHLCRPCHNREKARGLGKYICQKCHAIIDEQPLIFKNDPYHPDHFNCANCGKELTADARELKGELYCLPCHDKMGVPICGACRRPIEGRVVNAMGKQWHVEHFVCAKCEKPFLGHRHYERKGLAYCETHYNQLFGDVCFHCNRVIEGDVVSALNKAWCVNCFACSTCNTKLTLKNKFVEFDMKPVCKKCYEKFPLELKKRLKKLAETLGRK
UniProt Q15048: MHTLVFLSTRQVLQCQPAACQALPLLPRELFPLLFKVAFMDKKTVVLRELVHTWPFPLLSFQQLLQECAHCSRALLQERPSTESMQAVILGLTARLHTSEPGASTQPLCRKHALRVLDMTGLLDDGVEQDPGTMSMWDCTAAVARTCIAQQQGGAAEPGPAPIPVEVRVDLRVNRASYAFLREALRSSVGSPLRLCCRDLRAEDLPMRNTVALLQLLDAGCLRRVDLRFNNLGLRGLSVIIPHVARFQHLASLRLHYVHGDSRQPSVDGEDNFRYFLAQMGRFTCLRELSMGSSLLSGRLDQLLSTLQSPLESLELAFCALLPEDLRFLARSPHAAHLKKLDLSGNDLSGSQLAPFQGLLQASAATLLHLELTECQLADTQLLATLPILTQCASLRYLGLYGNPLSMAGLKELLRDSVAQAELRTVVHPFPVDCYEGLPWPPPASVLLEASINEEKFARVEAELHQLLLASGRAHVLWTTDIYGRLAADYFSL
UniProt P13796: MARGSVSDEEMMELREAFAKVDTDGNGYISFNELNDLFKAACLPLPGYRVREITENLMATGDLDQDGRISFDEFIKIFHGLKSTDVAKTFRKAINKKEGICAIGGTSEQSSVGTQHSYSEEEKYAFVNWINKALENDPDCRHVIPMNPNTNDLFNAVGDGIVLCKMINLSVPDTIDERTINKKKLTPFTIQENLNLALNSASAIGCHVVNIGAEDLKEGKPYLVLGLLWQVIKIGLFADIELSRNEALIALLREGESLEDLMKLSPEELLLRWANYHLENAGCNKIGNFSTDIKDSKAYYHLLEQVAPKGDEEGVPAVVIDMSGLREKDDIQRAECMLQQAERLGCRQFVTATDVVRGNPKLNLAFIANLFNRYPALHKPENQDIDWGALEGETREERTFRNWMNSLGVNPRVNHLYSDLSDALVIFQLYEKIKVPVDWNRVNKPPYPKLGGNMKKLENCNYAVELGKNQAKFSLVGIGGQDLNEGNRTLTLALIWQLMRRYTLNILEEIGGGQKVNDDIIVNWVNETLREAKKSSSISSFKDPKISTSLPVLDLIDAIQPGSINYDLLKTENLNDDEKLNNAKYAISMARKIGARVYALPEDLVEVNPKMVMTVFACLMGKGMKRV
UniProt O75581: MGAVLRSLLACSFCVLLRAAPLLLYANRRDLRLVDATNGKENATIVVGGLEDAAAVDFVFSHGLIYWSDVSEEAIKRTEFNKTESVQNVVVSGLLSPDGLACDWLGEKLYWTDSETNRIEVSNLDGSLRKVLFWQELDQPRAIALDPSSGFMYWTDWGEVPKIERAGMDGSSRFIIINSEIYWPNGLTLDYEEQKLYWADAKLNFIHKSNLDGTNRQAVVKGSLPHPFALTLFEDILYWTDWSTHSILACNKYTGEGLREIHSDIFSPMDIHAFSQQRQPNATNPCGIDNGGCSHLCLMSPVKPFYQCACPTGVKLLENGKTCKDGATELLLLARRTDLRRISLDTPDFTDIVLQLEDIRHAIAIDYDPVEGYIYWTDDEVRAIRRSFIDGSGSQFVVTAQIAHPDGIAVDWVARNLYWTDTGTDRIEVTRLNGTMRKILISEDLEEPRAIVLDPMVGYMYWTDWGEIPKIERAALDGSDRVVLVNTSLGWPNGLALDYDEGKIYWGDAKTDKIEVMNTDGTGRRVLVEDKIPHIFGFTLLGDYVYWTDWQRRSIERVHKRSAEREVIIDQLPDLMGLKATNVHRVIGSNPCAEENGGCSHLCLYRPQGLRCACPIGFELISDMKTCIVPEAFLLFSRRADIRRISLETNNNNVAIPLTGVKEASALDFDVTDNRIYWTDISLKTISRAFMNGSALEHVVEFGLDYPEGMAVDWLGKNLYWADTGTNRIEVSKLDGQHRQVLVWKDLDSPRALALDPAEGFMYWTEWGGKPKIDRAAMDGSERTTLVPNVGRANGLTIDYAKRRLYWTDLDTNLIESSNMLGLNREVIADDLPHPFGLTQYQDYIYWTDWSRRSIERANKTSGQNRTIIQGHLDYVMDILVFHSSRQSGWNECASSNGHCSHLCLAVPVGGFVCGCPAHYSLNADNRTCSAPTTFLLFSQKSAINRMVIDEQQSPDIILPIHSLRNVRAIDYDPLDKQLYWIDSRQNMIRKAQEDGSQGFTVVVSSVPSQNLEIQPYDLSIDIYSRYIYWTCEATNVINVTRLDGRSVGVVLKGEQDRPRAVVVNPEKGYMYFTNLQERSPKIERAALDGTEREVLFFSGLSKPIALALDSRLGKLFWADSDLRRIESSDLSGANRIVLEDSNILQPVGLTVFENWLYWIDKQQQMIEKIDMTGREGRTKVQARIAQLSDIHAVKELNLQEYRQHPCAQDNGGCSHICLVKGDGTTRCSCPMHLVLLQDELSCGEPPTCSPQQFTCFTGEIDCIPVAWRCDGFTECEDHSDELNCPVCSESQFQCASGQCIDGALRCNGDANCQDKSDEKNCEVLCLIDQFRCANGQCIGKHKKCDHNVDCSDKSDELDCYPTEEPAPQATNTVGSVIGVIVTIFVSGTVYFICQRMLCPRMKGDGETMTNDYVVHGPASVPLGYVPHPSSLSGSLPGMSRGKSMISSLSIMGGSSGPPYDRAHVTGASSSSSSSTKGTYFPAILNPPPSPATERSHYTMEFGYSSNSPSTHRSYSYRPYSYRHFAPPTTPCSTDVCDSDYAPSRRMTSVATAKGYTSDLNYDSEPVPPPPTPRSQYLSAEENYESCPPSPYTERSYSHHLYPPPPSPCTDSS
UniProt Q96BZ8: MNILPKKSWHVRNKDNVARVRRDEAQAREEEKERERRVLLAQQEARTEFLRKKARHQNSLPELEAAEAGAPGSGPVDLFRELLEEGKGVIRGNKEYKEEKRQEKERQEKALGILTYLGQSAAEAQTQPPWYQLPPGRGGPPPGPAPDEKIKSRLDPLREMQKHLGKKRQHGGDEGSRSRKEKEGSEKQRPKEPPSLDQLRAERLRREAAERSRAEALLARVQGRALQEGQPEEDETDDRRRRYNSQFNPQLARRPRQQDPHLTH
UniProt O00214: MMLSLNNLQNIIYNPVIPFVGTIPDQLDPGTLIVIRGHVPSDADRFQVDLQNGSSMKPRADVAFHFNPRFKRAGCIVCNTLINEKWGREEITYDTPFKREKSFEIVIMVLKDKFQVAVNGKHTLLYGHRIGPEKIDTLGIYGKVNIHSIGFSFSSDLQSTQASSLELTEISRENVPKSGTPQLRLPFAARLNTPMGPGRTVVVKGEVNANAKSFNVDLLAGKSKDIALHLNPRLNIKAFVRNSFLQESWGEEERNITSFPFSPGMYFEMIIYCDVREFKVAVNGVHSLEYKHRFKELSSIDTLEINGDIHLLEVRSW
UniProt O60294: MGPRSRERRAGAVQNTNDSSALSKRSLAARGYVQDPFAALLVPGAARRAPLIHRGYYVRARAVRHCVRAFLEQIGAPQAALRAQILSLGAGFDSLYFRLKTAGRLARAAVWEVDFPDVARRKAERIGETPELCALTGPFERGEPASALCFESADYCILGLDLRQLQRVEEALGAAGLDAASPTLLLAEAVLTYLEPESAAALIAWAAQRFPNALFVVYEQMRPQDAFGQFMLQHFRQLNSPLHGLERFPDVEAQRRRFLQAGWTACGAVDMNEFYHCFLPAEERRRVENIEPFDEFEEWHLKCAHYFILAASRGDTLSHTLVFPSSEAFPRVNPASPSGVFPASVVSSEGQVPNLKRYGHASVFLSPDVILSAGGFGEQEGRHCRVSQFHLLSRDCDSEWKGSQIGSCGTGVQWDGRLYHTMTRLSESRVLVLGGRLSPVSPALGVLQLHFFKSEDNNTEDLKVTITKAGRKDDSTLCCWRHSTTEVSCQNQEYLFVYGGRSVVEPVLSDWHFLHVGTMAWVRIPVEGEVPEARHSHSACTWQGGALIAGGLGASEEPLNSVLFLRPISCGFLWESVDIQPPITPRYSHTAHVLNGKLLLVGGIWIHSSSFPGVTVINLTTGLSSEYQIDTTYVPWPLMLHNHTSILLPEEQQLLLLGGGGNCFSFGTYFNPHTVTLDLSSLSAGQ
UniProt Q9H008: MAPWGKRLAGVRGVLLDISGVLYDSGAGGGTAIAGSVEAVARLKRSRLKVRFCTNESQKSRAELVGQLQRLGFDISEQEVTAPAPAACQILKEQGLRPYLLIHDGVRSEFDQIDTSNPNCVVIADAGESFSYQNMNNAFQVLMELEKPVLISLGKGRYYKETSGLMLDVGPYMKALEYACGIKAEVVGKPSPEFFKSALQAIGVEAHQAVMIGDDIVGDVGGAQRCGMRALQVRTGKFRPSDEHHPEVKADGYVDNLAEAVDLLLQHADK
UniProt P23490: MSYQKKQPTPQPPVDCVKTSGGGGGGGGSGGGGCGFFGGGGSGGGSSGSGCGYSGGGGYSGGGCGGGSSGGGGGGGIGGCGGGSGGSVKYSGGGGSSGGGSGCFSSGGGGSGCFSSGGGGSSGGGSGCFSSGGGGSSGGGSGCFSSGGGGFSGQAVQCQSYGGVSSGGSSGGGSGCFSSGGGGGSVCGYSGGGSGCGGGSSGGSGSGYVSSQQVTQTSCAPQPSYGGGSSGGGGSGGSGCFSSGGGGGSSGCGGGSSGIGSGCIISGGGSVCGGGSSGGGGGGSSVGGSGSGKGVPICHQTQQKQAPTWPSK

Key:
Assay in all cases: log2 fold change, soluble protein after heating vs DMSO (PISA); higher = thermal stabilisation; K562 cells, 10 uM, 30 min; active = over 0.2 and 3.5 SD of the protein, either way, in both replicates (recomputed)
[1] = compound: C#Cc1cccc(Nc2ncnc3cc(OCCOC)c(OCCOC)cc23)c1 [erlotinib]
How it was run: (§1)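 Aliquots of K562 cells (2×10^6 cells/mL) treated with 10 μM compound for 30 min were heated for 3 min over 48°C-58°C. After pooling and extraction in PBS with 0.5% NP-40 at 4°C, soluble protein from a 21,000xg, 90 min spin was quantified by TMTpro 16plex LC-MS/MS with channel sums equalised. Thermal stability is expressed against control samples, from duplicates, as a log2 fold change.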

[2] = compound: C/C(=N\NC(=O)C1=CC(=CC=C1)S(=O)(=O)N2CCOCC2)/C3=C(C=CC(=C3)Cl)O
How it was run: as §1

[3] = compound: C1=CC(=C(C=C1Cl)C2=NC3=NC=CN=C3C(=N2)NC4=CC=NC=C4)F
How it was run: as §1

[4] = compound: C1=CC(=CC=C1C2=NC3=C(N2)C=C(C=C3)C(=O)N)OC4=CC=C(C=C4)Cl
How it was run: as §1

[5] = compound: C1=CC2=C(C=CC(=C2)/C=C\3/C(=O)NC(=NCC4=CC=CS4)S3)N=C1
How it was run: as §1

[6] = compound: C1=CC2=NC=CN=C2C=C1/C=C/3\C(=O)NC(=O)S3
How it was run: as §1

[7] = compound: C1=CC=C(C=C1)C2=NC(=C(N2)C3=CC=NC=C3)C4=CC(=C(C=C4)Cl)O
How it was run: as §1

[8] = compound: C1=CC=C2C(=C1)C3=NNC4=CC=CC(=C43)C2=O
How it was run: as §1

[9] = compound: C1CCN(C1)C(=O)NC2=CC=CC(=C2)NC3=NC=C(C(=N3)NCCC4=CN=CN4)Br
How it was run: as §1

[10] = compound: C1CN(CCC1(CC2=CC=C(C=C2)Cl)N)C3=NC=NC4=C3C=CN4
How it was run: as §1

Measured: log2 fold change

LRRC4B (UniProt Q9NT99)
inactive: [1] 0.186 | [2] 0.045 | [3] 0.042 | [4] -0.144 | [5] 0.047 | [6] -0.013 | [7] -0.028 | [8] -0.087 | [9] 0.073 | [10] 0.067

LMO2 isoform 3 (UniProt P25791)
inactive: [1] -0.053 | [2] -0.021 | [3] 0.023 | [4] 0.017 | [5] 0.03 | [6] 0.008 | [7] -0.031 | [8] 0.055 | [9] 0.012 | [10] 0.006

LRRC42 (UniProt Q9Y546)
inactive: [1] -0.01 | [2] -0.301 | [4] 0.011 | [5] 0.398 | [6] 0.161 | [7] -0.082 | [8] 0.004 | [9] 0.023 | [10] 0.099

LIMK2 isoform 3 (UniProt P53671)
inactive: [1] 0.072 | [2] -0.225 | [3] 0.005 | [4] -0.019 | [5] 0.054 | [6] 0.028 | [7] 0.042 | [8] 0.097 | [9] 0.151 | [10] 0.04

LRBA, A0A494BZW2
inactive: [1] 0.111 | [2] 0.022 | [3] 0.283 | [4] 0.124 | [5] -0.055 | [6] 0.061 | [7] -0.105 | [8] -0.013 | [9] 0.097 | [10] 0.189

LEPROT (UniProt O15243)
inactive: [1] 0.06 | [2] 0.034 | [3] 0.081 | [4] 0.088 | [5] 0.119 | [8] -0.058 | [9] -0.011 | [10] 0.001

LPIN1 isoform 7 (UniProt Q14693)
inactive: [1] 0.027 | [2] 0.068 | [3] 0.059 | [4] -0.043 | [5] -0.001 | [6] -0.102 | [7] -0.031 | [8] 0.015 | [9] -0.033 | [10] 0.025

LANCL1 (UniProt O43813)
inactive: [1] -0.034 | [2] 0.015 | [3] 0.043 | [4] 0.001 | [5] -0.044 | [6] 0.009 | [7] -0.003 | [8] -0.021 | [9] -0.025 | [10] 0.022

LIMS1 isoform 3 (UniProt P48059)
inactive: [1] 0.001 | [2] 0.012 | [3] 0.047 | [4] 0.015 | [5] 0.025 | [6] 0.036 | [7] 0.038 | [8] -0.053 | [9] -0.023 | [10] 0.056

L3HYPDH (UniProt Q96EM0)
inactive: [1] 0.06 | [2] 0.055 | [3] 0.052 | [4] -0.03 | [5] 0.042 | [6] -0.011 | [7] 0.084 | [8] -0.019 | [9] -0.021 | [10] 0.072

LPL (UniProt P06858)
inactive: [1] 0.051 | [2] -0.106 | [4] -0.065 | [5] -0.24 | [8] -0.188 | [9] -0.056 | [10] -0.04

KYNU (UniProt Q16719)
inactive: [1] 0.047 | [2] -0.037 | [3] -0.045 | [4] -0.046 | [5] -0.01 | [6] 0.022 | [7] 0.001 | [8] -0.013 | [9] -0.029 | [10] 0.062

KXD1 (UniProt Q9BQD3)
inactive: [1] 0.069 | [2] 0.018 | [3] 0.011 | [4] -0.005 | [5] 0.083 | [6] 0.024 | [7] 0.01 | [8] 0.018 | [9] 0.022 | [10] 0.036

LARP1 (UniProt Q6PKG0)
inactive: [1] -0.051 | [2] 0.002 | [3] -0.11 | [4] 0.085 | [5] -0.025 | [6] -0.001 | [7] -0.081 | [8] -0.067 | [9] 0.046 | [10] -0.172

LRRC14 (UniProt Q15048)
inactive: [1] -0.05 | [2] 0.003 | [4] 0.068 | [5] 0.108 | [6] 0.222 | [8] -0.046 | [9] -0.08 | [10] -0.028

LCP1 (UniProt P13796)
inactive: [1] 0.07 | [2] -0.055 | [3] 0.018 | [4] -0.021 | [5] -0.038 | [6] -0.001 | [7] -0.036 | [8] 0.019 | [9] 0.017 | [10] 0.034

LAP3 (UniProt P28838)
inactive: [1] -0.063 | [2] -0.042 | [3] 0.043 | [4] 0.014 | [5] 0.004 | [6] 0.008 | [7] -0.006 | [8] 0.033 | [9] -0.013 | [10] 0.022

2 neighbouring records out of the list so far, quoted:
LCP1 (UniProt P13796)
inactive: [1] 0.07 | [2] -0.055 | [3] 0.018 | [4] -0.021 | [5] -0.038 | [6] -0.001 | [7] -0.036 | [8] 0.019 | [9] 0.017 | [10] 0.034

LAP3 (UniProt P28838)
inactive: [1] -0.063 | [2] -0.042 | [3] 0.043 | [4] 0.014 | [5] 0.004 | [6] 0.008 | [7] -0.006 | [8] 0.033 | [9] -0.013 | [10] 0.022

Remaining list, next part

LRP6 (UniProt O75581)
inactive: [1] 0.114 | [2] -0.417 | [4] 0.061 | [5] 0.093 | [6] -0.034 | [8] 0.036 | [9] -0.104 | [10] 0.12

LRP8 (UniProt E9PP15)
inactive: [1] 0.197 | [2] 0.048 | [3] 0.024 | [4] -0.204 | [5] 0.015 | [6] 0.046 | [7] -0.043 | [8] -0.161 | [9] 0.074 | [10] -0.005

LAMA5 (UniProt O15230)
inactive: [1] -0.161 | [2] -0.157 | [3] 0.037 | [4] 0.151 | [5] -0.06 | [8] -0.235 | [9] -0.248 | [10] 0.009

LLGL1 (UniProt Q15334)
inactive: [1] 0.011 | [3] 0.172 | [4] 0.046 | [9] -0.135 | [10] -0.008

LENG1 (UniProt Q96BZ8)
inactive: [1] 0.042 | [2] -0.07 | [3] -0.03 | [4] -0.011 | [5] 0.041 | [6] 0.079 | [7] -0.01 | [8] -0.031 | [9] 0.136 | [10] 0.004

LPCAT2 (UniProt Q7L5N7)
inactive: [1] -0.052 | [2] 0.182 | [3] 0.123 | [4] -0.061 | [5] 0.21 | [6] -0.015 | [7] 0.159 | [8] -0.022 | [9] 0.022 | [10] 0.036

LGALS8 isoform 2 (UniProt O00214)
inactive: [1] -0.011 | [2] -0.034 | [3] -0.282 | [4] 0.062 | [5] -0.038 | [6] -0.059 | [8] 0.036 | [9] 0.043 | [10] 0.039

LHFPL2 (UniProt Q6ZUX7)
inactive: [1] 0.078 | [3] -0.169 | [4] 0.216 | [9] -0.024 | [10] 0.111

LCMT2 (UniProt O60294)
inactive: [1] 0.125 | [3] 0.083 | [4] -0.073 | [6] -0.211

LHPP (UniProt Q9H008)
inactive: [1] -0.067 | [2] 0.109 | [3] 0.129 | [4] -0.018 | [5] -0.002 | [6] -0.136 | [7] 0.047 | [8] -0.037 | [9] -0.03 | [10] -0.018

LMNA isoform 2 (UniProt P02545)
inactive: [9] -0.022 | [10] 0.146

LRP10 (UniProt Q7Z4F1)
inactive: [2] 0.046 | [3] -0.123 | [5] -0.094 | [6] 0.009 | [7] 0.102 | [8] -0.013

LOR (UniProt P23490)
inactive: [3] -0.083

LAPTM4B (UniProt Q86VI4)
inactive: [1] -0.074 | [4] -0.054 | [6] 0.093

LDHD (UniProt Q86WU2)
inactive: [1] -0.057 | [4] -0.007
